Experimental data reported in publication PMC8572006.
These are yes or no findings as the source states them, for the method shown. In cells and extracts the contact can be indirect. Some binding calls cover weakened binding; strength is not graded here. Sequences can lack the tags named with a protein.

The chains behind the UniProt entries cited, without tags or fusion partners. Residues count along the entry.
UniProt Q6PHU5, residues 74-825: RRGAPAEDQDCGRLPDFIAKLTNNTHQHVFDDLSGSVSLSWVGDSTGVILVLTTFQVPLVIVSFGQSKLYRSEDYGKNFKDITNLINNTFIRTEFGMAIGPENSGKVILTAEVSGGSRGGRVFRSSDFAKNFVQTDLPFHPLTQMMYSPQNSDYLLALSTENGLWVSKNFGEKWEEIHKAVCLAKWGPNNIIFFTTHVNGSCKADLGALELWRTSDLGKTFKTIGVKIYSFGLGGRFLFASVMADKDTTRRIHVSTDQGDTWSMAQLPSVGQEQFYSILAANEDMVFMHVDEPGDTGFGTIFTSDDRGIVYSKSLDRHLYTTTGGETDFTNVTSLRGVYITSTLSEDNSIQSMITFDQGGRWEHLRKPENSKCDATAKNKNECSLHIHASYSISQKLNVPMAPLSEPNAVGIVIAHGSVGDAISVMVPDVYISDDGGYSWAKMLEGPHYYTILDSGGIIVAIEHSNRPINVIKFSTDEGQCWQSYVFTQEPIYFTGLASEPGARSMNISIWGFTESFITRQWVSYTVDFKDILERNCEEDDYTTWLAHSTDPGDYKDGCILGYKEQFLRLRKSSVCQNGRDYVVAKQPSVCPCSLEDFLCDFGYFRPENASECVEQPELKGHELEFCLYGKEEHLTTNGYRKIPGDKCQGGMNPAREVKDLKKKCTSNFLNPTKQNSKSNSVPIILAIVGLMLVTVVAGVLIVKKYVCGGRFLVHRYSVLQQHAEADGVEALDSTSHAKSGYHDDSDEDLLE

Legend:
[1] = molecular target: T1, Myc-tagged mouse fatty acid-binding protein 7 (FABP7) (mouse) (UniProt P51880); experiment: proximity ligation; fixed CHO-S/F cells (4% PFA), primary antibodies against sortilin and the Myc epitope in FABP7-Myc, orange PLA probes; also after 24 h with conditioned medium with 5 µg/ml apoE3 or apoE4
T1 sequence: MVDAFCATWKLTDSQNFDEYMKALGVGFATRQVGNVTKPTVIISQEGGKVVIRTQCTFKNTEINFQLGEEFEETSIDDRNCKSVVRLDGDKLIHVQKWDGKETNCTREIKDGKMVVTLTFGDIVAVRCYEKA

[2] = molecular target: T1, Myc-tagged mouse fatty acid-binding protein 7 (FABP7) (mouse); experiment: co-IP; anti-Myc affinity resin on lysates of CHO-S/F cells (stably co-expressing sortilin and FABP7-Myc), sortilin detected by blot; also after 24 h treatment of the cells with conditioned HEK293 medium with 5 µg/ml apoE3 or apoE4 or blank medium

binding [1]: binds
binding [2]: binds
Substance: sortilin (mouse), stably overexpressed in CHO cells (from UniProt Q6PHU5 74-825) (receptor)
